# According to PMC11192944:
# By UniProt entry, the sequences of proteins in these tests, tags left out.
# UniProt O00429: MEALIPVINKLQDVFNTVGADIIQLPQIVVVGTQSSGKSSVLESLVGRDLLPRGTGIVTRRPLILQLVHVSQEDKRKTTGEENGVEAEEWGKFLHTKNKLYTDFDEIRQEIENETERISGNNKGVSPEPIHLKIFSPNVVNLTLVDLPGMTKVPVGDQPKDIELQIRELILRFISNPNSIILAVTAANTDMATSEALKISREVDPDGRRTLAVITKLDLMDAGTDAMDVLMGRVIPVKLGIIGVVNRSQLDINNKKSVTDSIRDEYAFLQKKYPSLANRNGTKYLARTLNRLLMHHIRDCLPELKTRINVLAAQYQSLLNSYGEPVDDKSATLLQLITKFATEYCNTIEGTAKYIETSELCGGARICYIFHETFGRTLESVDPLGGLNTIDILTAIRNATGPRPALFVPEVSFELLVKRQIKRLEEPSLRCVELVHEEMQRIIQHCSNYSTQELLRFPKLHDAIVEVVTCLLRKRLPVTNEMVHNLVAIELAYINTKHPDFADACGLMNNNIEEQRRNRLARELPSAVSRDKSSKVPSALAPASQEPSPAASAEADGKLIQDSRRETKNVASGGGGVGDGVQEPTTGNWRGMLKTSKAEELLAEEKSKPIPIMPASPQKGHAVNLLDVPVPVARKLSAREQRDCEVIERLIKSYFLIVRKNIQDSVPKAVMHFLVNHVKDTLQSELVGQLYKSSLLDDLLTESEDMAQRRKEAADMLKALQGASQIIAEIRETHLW
# Results are given in words; binding and its absence hold for the method and conditions named. In cells and extracts the contact can be indirect. Some results given as binding are weak or reduced against the parent protein; the word gives no strength.
# B1: PJA1, endogenous in NPC cells (protein, UniProt Q8NG27 1-643)
# chain: MGQESSKPVWPNPTGGYQSNTGRRYGRRHAYVSFRPPTSQRERIASQRKTNSEVPMHRSAPSQTTKRSRSPFSTTRRSWDDSESSGTNLNIDNEDYSRYPPREYRASGSRRGMAYGHIDSYGADDSEEEGAGPVERPPVRGKTGKFKDDKLYDPEKGARSLAGPPPHFSSFSRDVREERDKLDPVPAARCSASRADFLPQSSVASQSSSEGKLATKGDSSERERREQNLPARPSRAPVSICGGGENTSKSAEEPVVRPKIRNLASPNCVKPKIFFDTDDDDDMPHSTSRWRDTANDNEGHSDGLARRGRGESSSGYPEPKYPEDKREARSDQVKPEKVPRRRRTMADPDFWTHSDDYYKYCDEDSDSDKEWIAALRRKYRSREQTLSSSGESWETLPGKEEREPPQAKVSASTGTSPGPGASASAGAGAGASAGSNGSNYLEEVREPSLQEEQASLEEGEIPWLQYHENDSSSEGDNDSGHELMQPGVFMLDGNNNLEDDSSVSEDLEVDWSLFDGFADGLGVAEAISYVDPQFLTYMALEERLAQAMETALAHLESLAVDVEVANPPASKESIDALPEILVTEDHGAVGQEMCCPICCSEYVKGEVATELPCHHYFHKPCVSIWLQKSGTCPVCRCMFPPPL
# Molecular target: DRP1, endogenous in NPC cells (human (endogenous in NPC cells)) (UniProt O00429)
# Experiment: co-IP; endogenous proteins in NPC cell lysate, precipitated with anti-PJA1 or anti-DRP1 antibody; IP lysis buffer, antibody overnight at 4 °C, Protein A/G magnetic beads; with or without docetaxel treatment of the cells (PJA1-PGAM5)
binder,measurement,value
B1,binding,binds
